Reference: PubChem BioAssay AID1671195 (Yale University, 2021)

Aim: 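Regulators of LDL receptor activity judged by labelled LDL uptake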 (primary screen)
Cell system: human Huh7 hepatoma cells
Knock-down reagent: siRNA pool against human genes, 18 nM
Timing: about 2 to 2.5 days of knockdown, then 8 h LDL uptake
Challenge: DiI-labelled LDL at 30 µg/ml for 8 h, in lipoprotein-deficient serum medium
Read-out: 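Per-cell DiI-LDL intensity by automated imaging; well means scaled to the plate median and given as a robust z-score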
Reading the numbers: robust z-score: higher = more LDL uptake after knockdown
Rule for the call: 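a gene counts as active if at least two replicate z-scores exceed ±2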
Shown is an unselected part of about 22,000 deposited reagents. Over the whole deposit, about 1,510 (6.9%) got an active call. 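Active includes knockdowns raising or lowering LDL uptake; positive z-scores mean more uptake, negative mean less.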 Unmarked entries are inactive.

Target gene	robust z-score, replicate 1	robust z-score, replicate 2	robust z-score, replicate 3
GMIP	-0.213	0.729	-0.124
LOC285321 (retired record)	-1.46	-1.59	-1.42
TIGD7	0.499	0.522	0.0958
CCDC183	-0.665	0.484	0.0145
SLC44A1	1.82	0.865	2.23
SUSD2	-0.843	0.286	0.229
SFXN4	0.822	0.84	0.979
BCO1	-1.86	-1.73	-2.03
PPIAP33	-1.04	-1.07	-0.858
ZNF267	-0.18	0.191	-0.0453
BLK	-0.887	-1.45	-1.12
PXYLP1	2.05	1.09	1.87
JUND	-1.02	-0.956	-1.3
NUDT16L2P	0.786	-0.357	0.718
RUMY4	1.27	1.77	1.65
COX6A2	-0.62	-0.746	-0.364
PELP1	2.09	0.638	1.2
TSKU	0.189	-0.294	-1.38
MIB1	0.397	-1.3	-1.33
LOC401449 (retired record)	-1.24	-2.22	-1.04
MARS1	0.47	1.13	0.0208
CD248	0.262	1.24	1.09
VPS16	-0.767	0.732	-0.865
MARCHF7	1.18	0.966	1
OXCT1	0.585	2.43	0.538
CSGALNACT1	1.37	0.519	1.95
RPSAP10	1.24	-0.0245	0.168
PLAUR	1.7	1.46	1.85
ITPR2	0.719	0.74	0.0814

Records above whose target name begins with M or m:
Target gene	robust z-score, replicate 1	robust z-score, replicate 2	robust z-score, replicate 3
MIB1	0.397	-1.3	-1.33
MARS1	0.47	1.13	0.0208
MARCHF7	1.18	0.966	1

The listing continues.
Target gene	robust z-score, replicate 1	robust z-score, replicate 2	robust z-score, replicate 3
PDXDC1	-0.998	0.586	-0.805
HLA-DRB5	-0.547	-1.94	-0.826
ZNF713	-0.82	-0.941	-1.23
CCNY	-0.042	-0.547	-0.58
VPS28	-2.1	0.0728	-1.7
HAAO	-1.06	-0.501	-0.246
SMG5	-0.0208	0.476	-0.203
ZRANB1	-0.31	-0.513	-0.529
ZC3H13	1.01	0.233	1.53
NOTUM	-0.222	0.24	0.283
EZH2	-0.621	-0.9	-0.55
FOXO3	0.125	0.271	0.868
VN2R9P	-0.628	-0.633	-0.52
TRUB2	-1.04	-0.693	-0.195
IL25	1.95	2.22	1.84
OSTM1	0.961	-1.27	0.636
MRM1	-0.316	0.0974	-0.766
